From patent EP0408371B1 (SMITHKLINE BEECHAM CORPORATION, priority 1989, dated 1994)

Experiment: peptide synthesis
Details: coupling step

Going from “BOC-(γ-OBz)Glu-(β-OBz)Asp-Sub-(ε-Z)Lys-COOBz” to “pGlu-(γ-OBz) Glu-(β-OBz) Asp-Sub-(ε-Z) Lys-COOBz”, the step yield rises from 68% to 69%.

With BOC-Asp-(β-OBz)-Sub-Lys-(ε-Z)COOBz the step yield was 73%.
